PubChem BioAssay AID1671190 (National Center for Advancing Translational Sciences (NCATS), 2021)
In all, about 580,000 compounds went through this assay and about 6,100 (1.1%) were called active. This list was built around the results that the source calls inconclusive (neither active nor inactive); the mix of calls is not that of the screen. The call rests on the fitted dose curve; in most records, active means well fitted inhibition curve with a large enough effect; inconclusive means small, poorly fitted or top-dose-only effect, or another doubt; inactive means no such curve, though single readings can be large or run the other way. Potencies beside an inconclusive call are fits to weak or partial responses and may not hold up.
Potency means the concentration at half of the fitted maximal effect.

Protein sequences, listed by entry. Tags and fused reporters are not part of them.
UniProt P18054, whole entry, looked up: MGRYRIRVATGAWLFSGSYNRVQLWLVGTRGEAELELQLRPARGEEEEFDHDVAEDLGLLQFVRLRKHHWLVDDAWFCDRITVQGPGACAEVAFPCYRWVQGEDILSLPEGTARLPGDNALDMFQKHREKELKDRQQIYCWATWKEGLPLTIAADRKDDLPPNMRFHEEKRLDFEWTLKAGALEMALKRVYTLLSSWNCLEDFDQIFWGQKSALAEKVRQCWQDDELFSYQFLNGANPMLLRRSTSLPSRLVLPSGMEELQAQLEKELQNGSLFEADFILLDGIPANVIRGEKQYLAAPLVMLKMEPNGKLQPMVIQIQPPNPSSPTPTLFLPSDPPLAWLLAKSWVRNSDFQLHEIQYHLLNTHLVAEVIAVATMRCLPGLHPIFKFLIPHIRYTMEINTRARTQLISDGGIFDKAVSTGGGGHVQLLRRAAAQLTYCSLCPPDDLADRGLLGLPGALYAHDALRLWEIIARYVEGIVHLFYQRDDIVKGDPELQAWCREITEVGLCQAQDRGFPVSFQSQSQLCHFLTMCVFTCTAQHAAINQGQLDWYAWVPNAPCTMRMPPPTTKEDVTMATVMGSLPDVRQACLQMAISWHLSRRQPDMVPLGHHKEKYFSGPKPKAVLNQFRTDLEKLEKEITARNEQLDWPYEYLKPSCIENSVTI

These compounds were tested against Polyunsaturated fatty acid lipoxygenase ALOX12 (Homo sapiens) (UniProt P18054) (assay: Primary qHTS assay for inhibitors of human arachidonate 12S-lipoxygenase (ALOX12): Round 2). Conditions: purified 12hLO, xylenol orange hydroperoxide absorbance; series mostly up to 108 µM.
Outline: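 Hydroperoxide product was detected by ferrous iron/xylenol orange as the 573 to 405 nm absorbance ratio. Arachidonic acid at 40 uM (final) was turned over for 30 min at room temperature by 150 nM human 12hLO, pH 7.0 Hepes buffer, after 15 min compound preincubation.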
In the case of `CCc1nc2ccc(C(=O)N3CCN(c4ccccc4)CC3)cn2c1N(C)CCC(C)C`, the Potency is reported as inconclusive: 56.2 µM [inhibitor, partial curve, poor fit].
With `Nc1ncnc2c1ncn2C1O[C@H](COP(=O)(O)O)[C@@H](O)[C@H]1O` (stereo partly specified) the Potency was inconclusive: 31.6 µM [inhibitor, partial curve, poor fit].
In the case of `COc1ccc2nc(NC(=O)Cc3cccs3)sc2c1`, the Potency is reported as inconclusive: 112 µM [inhibitor, single point].
For `O=C(O)CCN1C(=O)C2C3C=CC(C3)C2C1=O` (stereo unspecified), the Potency was “inactive”.
With `CCC[C@@H](NC(=O)[C@@H]1[C@H]2CCC[C@@H]2CN1C(=O)[C@@H](NC(=O)[C@@H](NC(=O)c1cnccn1)C1CCCCC1)C(C)(C)C)C(=O)C(=O)NC1CC1` the Potency was inconclusive: 6.85 µM [inhibitor, single point].
For `CC1(N(O)C=C2C=CC(=O)C=C2)CCCCC1=O` (stereo unspecified), the Potency was inconclusive: 35.5 µM [inhibitor, partial curve, poor fit].
`CCCN1CNc2c(c(=O)[nH]c(=S)n2-c2ccc(Cl)cc2)C1` was tested, and the Potency was inconclusive: 112 µM [inhibitor, single point].
For `Cc1n[nH]c(=O)c2c(NC(=O)CSc3ccccc3F)oc(C)c12`, the Potency was inconclusive: 39.8 µM [inhibitor, partial curve].
In the case of `N#CCC(=N)N1CCN(c2ccccc2)CC1`, the Potency is reported as inconclusive: 31.6 µM [inhibitor, single point].
`Cn1c(=O)[nH]c(=O)c2c1nc(Br)n2CCSc1nc2ccccc2o1` was tested, and the Potency was inconclusive: 31.6 µM [inhibitor, partial curve, poor fit].
In the case of `C[N+](C)(C)CCCCCC(=O)/C=N/O`, the Potency is reported as inconclusive: 44.7 µM [inhibitor, single point].
For `Cc1c(-c2ccccc2)nc(N)c(C#N)c1-c1ccco1`, the Potency was inconclusive: 112 µM [inhibitor, single point].
`CN(c1cccc(NC(=O)CN(c2cccc(Cl)c2)S(=O)(=O)c2ccc(Cl)cc2)c1)S(C)(=O)=O` was tested, and the Potency was inconclusive: 89.1 µM [inhibitor, single point].
In the case of `NNc1nc2ccc(F)cc2s1`, the Potency is reported as active: 6.31 µM.
For `CN(CCN(C)C(C)(C)C)C(=O)C(c1ccccc1)c1ccccc1`, the Potency was inconclusive: 0.398 µM [inhibitor, full curve, poor fit].
`COc1cccc(Cn2cnc(-c3ccccc3OC)c2-c2cc(C)cc(C)c2)c1` was tested, and the Potency was inconclusive: 39.8 µM [inhibitor, partial curve, poor fit].
With `COc1cc2c(cc1OC)C(C1C(=O)CC(C)(C)CC1=O)N(C(=O)CCl)CC2` (stereo unspecified) the Potency was inconclusive: 5.62 µM [inhibitor, full curve, poor fit].
`Cc1nc2c([nH]1)C1(CCN(Cc3ccccc3)CC1)C(C#N)=C(N)O2` was tested, and the Potency was inconclusive: 10 µM [inhibitor, partial curve, poor fit].
`CC(C)OCCCN1CN(S(=O)(=O)c2ccc(Cl)cc2)c2nc3ccccc3nc21` was tested, and the Potency was inconclusive: 31.6 µM [inhibitor, single point].
`COc1ccc(/C=C2\CCc3c2nc2ccccc2c3C(=O)O)cc1OC` was tested, and the Potency was inconclusive: 39.8 µM [inhibitor, partial curve].
In the case of `COCCN1C(=O)C(=O)/C(=C(/O)c2ccc(OC)c(C)c2)C1c1ccc(OC)c(OC)c1` (stereo unspecified), the Potency is reported as inconclusive: 12.6 µM [inhibitor, partial curve, poor fit].
With `O=C(Nc1ccccc1)c1ccccc1NC(=O)c1ccccc1C(=O)O` the Potency was inconclusive: 7.94 µM [inhibitor, partial curve, poor fit].
With `CCOCCn1nc(C)cc1C(=O)N1CCC2(CC1)[C@H](O)C[C@@H]2OCC` the Potency was “inactive”.
For `CCC(C)[C@H](NC(=O)N1CCN(c2cccc(C(F)(F)F)c2)CC1)C(=O)OC` (stereo partly specified), the Potency was “inactive”.
`O=C(CCN1CCOCC1)Nc1ccc2c(c1)CCC2` was tested, and the Potency was inconclusive: 1.78 µM [inhibitor, single point].
For `O=C(Nc1ccccc1N1CCCCC1)c1cc(S(=O)(=O)N2CCOCC2)ccc1Cl`, the Potency was “inactive”.
For `COCCNC(=O)C(C)(C)n1cc(-c2ccc(OC)c(OC)c2)cn1`, the Potency was inconclusive: 126 µM [inhibitor, single point].
With `Cn1cccc1C(=O)N[C@H]1C[C@@H](C(=O)O)N(C(=O)CCCC(=O)N2C[C@@H](NC(=O)c3cccs3)C[C@H]2C(=O)O)C1` the Potency was inconclusive: 25.1 µM [inhibitor, full curve].
With `Cn1cc(C=CC(=O)c2cccc(F)c2)cc1C=CC(=O)NO` the Potency was inconclusive: 0.385 µM [inhibitor, full curve].
For `COc1ccc(C)cc1NC(=O)Cn1c(=O)oc2cc(S(=O)(=O)N3CCCCCC3)ccc21`, the Potency was inconclusive: 0.355 µM [inhibitor, single point].
For `CC(=O)N1CC2(CCN(C(=O)c3ccc(Cl)cc3)CC2)Cc2ccccc21`, the Potency was inconclusive: 5.01 µM [inhibitor, full curve, poor fit].
In the case of `Nc1nccnc1C(=O)NCc1ccncc1`, the Potency is reported as “inactive”.
For `CC(C)(c1ccccc1)c1ccc(OC(=O)C2CCS(=O)(=O)C2)cc1` (stereo unspecified), the Potency was inconclusive: 50.1 µM [inhibitor, partial curve, poor fit].
`CC(=O)C1=C(C)NC(SCC(N)=O)=C(C#N)C1c1sccc1C` (stereo unspecified) was tested, and the Potency was “inactive”.
`COC(=O)c1sc2ccccc2c1-n1cccc1C(=O)C(=O)Nc1ccc(Cl)cc1` was tested, and the Potency was “inactive”.
For `CN1CCN(Cc2ccc(NC(=O)Nc3ccc(Oc4cc(NC(=O)C5CC5)ncn4)cc3)cc2C(F)(F)F)CC1`, the Potency was inconclusive: 15.3 µM [inhibitor, partial curve, poor fit].
In the case of `Cc1cc2ccccc2n1CCNC(=O)Cc1ccccc1`, the Potency is reported as “inactive”.
For `Cc1ccnc(Nc2nc(-c3ccc(F)cc3)cs2)c1`, the Potency was inconclusive: 44.7 µM [inhibitor, partial curve, poor fit].
For `COc1ccc(CNC(=O)COc2cc(O)c3c(c2)OC(C)(C)CC3=O)c(OC)c1`, the Potency was “inactive”.
With `Cc1cc(=O)n(Cc2ccc(OC(C)C)cc2)c(=S)[nH]1` the Potency was “inactive”.
`C[C@@H]1CN([C@@H](C)CO)C(=O)CCCn2nncc2CO[C@H]1CN(C)S(C)(=O)=O` was tested, and the Potency was inconclusive: 31.6 µM [inhibitor, single point].
